This assay addresses Akt (Akt1), endogenous in P7 mouse brain lysate (mouse (endogenous in P7 mouse brain)) (UniProt P31750). Description: co-IP; P7 mouse brain lysates, immunoprecipitation with anti-Akt antibody or normal IgG, blot with anti-Akt and anti-radixin.

Sequences of proteins named here, by UniProt entry; tags and fusion partners are left off.
UniProt P31750: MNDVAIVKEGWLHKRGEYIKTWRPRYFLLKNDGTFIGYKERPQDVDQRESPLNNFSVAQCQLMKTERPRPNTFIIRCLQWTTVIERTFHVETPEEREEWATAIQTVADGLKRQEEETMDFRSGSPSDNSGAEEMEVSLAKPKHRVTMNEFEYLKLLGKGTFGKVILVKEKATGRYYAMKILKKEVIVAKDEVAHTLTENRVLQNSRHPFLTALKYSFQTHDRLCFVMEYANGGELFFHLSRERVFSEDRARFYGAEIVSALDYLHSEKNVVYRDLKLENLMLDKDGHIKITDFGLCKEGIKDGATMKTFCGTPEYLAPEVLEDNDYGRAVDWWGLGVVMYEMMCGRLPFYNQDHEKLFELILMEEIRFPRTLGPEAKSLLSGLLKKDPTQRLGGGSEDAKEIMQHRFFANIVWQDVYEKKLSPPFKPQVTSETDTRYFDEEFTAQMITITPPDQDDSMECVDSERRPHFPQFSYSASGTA
UniProt P26043: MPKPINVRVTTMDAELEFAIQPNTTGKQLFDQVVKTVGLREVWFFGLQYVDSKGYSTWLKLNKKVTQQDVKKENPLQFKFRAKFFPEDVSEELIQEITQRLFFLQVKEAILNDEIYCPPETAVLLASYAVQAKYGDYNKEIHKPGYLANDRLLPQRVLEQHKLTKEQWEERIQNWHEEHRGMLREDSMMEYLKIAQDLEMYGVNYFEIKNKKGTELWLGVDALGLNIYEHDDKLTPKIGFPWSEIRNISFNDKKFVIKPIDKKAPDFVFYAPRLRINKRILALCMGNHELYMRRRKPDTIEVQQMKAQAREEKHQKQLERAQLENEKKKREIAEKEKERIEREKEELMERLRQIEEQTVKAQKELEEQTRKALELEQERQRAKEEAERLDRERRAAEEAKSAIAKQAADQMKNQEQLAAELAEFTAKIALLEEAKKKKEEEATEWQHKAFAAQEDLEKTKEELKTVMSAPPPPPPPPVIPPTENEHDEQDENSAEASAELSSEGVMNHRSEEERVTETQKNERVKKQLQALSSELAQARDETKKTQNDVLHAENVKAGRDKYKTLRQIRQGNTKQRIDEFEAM

These are yes or no findings as the source states them, for the method shown. In cells and extracts the contact can be indirect. Some binding calls cover weakened binding; strength is not graded here.

Take “radixin, endogenous in P7 mouse brain lysate (from UniProt P26043 1-583)”: the binding result is “binds”.

For the origin of these results see article PMC5803261.
